The match of structure and compound is tentative.
Experiments:
Menin-MLL1 = Menin-MLL1 (Homo sapiens, UniProt O00255); experiment: Menin-MLL1 inhibition assay (fluorescence polarization, Menin protein + FAM-MLL peptide); conditions: read-out: Biochemical assay Menin-MLL1 IC50; Menin (2-610) isoform 2, FAM-labelled MLL peptide, mP readout
Description: 1× assay bu9ffer (Tris 7.5 50 mM, NaCl 50 mM, DTT 1 mM, Tween-20 0.01%) was prepared and test compounds solution (10 mM in DMSO, Sigma, Cat. No. 34869) were transferred to assay plate (384-well plate, Perkin Elmer, Cat. No. 6007279) by Echo. The final fraction of DMSO is 1%. 20 nM of Menin protein (Menin (2-610) isform2, ChemPartner, Cat. No. 2020111101) in 1× assay buffer was added to prepare 2× enzyme solution. Then 10 nM of MLL-peptide (Ac-SRWRFPARPGTGRR-Ahx-Ahx-K(FAM)-NH2, GL Biochem (Shanghai)), Cat. No. 833831/202009220104) in 1× assay buffer was added to prepare 2× substrate solution. 10 μL of 2× enzyme solution was transferred to assay plate or 10 μL of 1× assay buffer for low control group. 10 μL of 2× substrate solution was added to each well to start reaction. mP data on Envision (Ex480/Em535(s), Em535(p)) was collected.
Compound potencies were determined by first calculating % inhibition at each compound concentration according to equation 1:
Inhibition %=(Max−Signal)/(Max−Min)*100 (Equation 1)
Y=Bottom+(Top-Bottom)/(1+(IC50/X)[…]), where Y is % inhibition and X is compound concentration (Equation 2)

Amino acid sequences for entries named in this document (tags omitted). Residues count along the entry.
UniProt O00255, 2-610 limits assumed: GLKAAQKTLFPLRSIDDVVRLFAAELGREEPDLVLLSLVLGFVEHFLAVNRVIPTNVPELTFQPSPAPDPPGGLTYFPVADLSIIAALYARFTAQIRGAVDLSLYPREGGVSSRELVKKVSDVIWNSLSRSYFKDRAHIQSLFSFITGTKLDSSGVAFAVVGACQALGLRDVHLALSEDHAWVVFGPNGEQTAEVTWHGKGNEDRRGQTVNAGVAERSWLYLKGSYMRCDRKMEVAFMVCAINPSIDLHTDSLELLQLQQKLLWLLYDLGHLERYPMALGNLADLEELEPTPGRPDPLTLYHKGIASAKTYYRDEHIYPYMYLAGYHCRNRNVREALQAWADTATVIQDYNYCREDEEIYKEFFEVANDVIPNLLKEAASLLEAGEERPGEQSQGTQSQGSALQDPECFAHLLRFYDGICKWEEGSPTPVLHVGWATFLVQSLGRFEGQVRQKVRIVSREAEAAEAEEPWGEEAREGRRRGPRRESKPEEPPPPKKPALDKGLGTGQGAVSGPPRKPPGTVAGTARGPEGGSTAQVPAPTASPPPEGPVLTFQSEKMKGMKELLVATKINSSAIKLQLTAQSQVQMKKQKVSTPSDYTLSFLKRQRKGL

MV-4-11 cells = experiment: Cell proliferation assay (CellTiter-Glo), MV-4-11; conditions: read-out: Cell antiproliferation assay MV-4-11 IC50; MV-4-11 (MLL-AF4), 4 days incubation
Description: The antiproliferative activity of test compounds was assessed in human leukemia cell lines. The cell line MV4-11, MOLM13 and OCI-AML3, which expresses the MLL fusion protein MLL-AF4, MLL-AF9 and carry the NPM1c gene mutation, respectively, were tested. HL-60 was used as a control cell line containing two MLL wildtype alleles in order to exclude compounds that display general cytotoxic effect. MV4-11 cells were cultured in IMDM supplemented with 10% FBS, MOLM13 and OCI-AML3 cells were cultured in RPMI1640 supplemented with 20% FBS, and HL-60 cells were cultured in IMDM supplemented with 20% FBS. Corresponding cells (MV4-11, MOLM13, OCI-AML3 or HL-60 cell line) were seeded in 100 uL medium per well in 96-well plate (white wall with clear bottom, tissue culture treated, Corning, Cat. No. CLS3903; Lot.No. 30419025). Plates were placed in the CO2 incubator overnight. Compounds solution (2 mM starting, 4-fold serial dilution) were prepared and added to the wells containing 100 μL of the culture medium with HPD300 according to the plate map and centrifuge at 1000 rpm for 1 minutes (200-fold dilution totally). MV4-11, MOLM13, OCI-AML3 and HL-60 cells were incubated with the compounds for 4, 12, 5 and 4 days, respectively, under 5% CO2 at 37° C., respectively. […] After incubation at room temperature for 10 mins, clear bottom with white back seal was pasted and luminescence with Envision was read.

Structure (SMILES)	IC50 (Menin-MLL1) [nM]	IC50 (MV-4-11 cells) [nM]
CCN(C(=O)c1cc(F)ccc1Oc1cncnc1N1CC2(CCN(C(=O)[C@H]3NCc4c3cnn4C)CC2)C1)C(C)C	5.2	107
N#Cc1ccc(-c2cc(F)ccc2Oc2nncnc2N2CC3(CCN(C(=O)[C@H]4NC[C@@H]5CCC[C@@H]54)CC3)C2)c(C2CC2)c1	4.4	2.3
